Test results reported in paper doi:10.1101/2020.02.21.958371.
No constants are given. Whether binding was seen depends on the method and setting. Binding can be weak; no strength is given. Tags and fused reporters may be left off the sequences shown. For some assays here: In cells and extracts the contact can be indirect.

Experiments:
[1] = target: T1, ROS1, split YFP fusion (BiFC) (Arabidopsis) (UniProt Q9SJQ6); experiment: split reporter
T1 sequence: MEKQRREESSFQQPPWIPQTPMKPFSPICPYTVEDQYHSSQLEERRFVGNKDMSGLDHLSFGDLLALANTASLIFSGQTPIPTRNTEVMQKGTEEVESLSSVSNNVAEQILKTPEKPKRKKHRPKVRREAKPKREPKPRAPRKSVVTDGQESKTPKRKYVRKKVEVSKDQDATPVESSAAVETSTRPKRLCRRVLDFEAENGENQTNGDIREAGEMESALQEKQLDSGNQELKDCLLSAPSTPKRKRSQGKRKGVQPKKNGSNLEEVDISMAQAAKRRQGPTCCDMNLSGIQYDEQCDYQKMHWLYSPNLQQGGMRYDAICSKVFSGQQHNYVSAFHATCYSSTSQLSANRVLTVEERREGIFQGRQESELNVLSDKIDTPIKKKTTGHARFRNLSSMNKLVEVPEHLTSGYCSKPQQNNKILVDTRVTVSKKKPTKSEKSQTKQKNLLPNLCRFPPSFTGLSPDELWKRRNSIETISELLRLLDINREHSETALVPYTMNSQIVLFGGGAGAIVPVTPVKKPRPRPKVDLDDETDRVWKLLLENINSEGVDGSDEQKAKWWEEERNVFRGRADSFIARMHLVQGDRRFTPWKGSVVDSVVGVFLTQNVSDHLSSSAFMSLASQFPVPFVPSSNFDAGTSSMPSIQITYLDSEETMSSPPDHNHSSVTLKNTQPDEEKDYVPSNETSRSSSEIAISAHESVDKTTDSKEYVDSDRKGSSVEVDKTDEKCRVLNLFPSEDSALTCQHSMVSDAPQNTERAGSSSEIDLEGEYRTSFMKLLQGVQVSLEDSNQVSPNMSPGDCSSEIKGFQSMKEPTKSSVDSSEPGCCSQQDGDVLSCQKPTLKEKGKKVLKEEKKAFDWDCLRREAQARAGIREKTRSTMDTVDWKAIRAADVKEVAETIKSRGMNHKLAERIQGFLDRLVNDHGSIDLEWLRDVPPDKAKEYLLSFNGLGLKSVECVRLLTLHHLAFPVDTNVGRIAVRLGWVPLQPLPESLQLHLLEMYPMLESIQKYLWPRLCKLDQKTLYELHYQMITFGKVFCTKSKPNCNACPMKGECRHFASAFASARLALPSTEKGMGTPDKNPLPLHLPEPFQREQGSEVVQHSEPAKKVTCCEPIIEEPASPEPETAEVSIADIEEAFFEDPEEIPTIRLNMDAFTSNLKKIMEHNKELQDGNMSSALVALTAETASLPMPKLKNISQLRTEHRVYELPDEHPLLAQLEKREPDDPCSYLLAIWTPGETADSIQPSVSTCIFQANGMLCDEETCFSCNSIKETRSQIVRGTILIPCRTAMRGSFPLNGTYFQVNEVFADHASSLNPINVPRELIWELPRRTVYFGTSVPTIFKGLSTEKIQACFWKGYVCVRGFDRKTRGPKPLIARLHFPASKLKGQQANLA

[2] = target: T2, ROS1, split luciferase fusion (Arabidopsis) (UniProt Q9SJQ6); experiment: split reporter
T2 sequence: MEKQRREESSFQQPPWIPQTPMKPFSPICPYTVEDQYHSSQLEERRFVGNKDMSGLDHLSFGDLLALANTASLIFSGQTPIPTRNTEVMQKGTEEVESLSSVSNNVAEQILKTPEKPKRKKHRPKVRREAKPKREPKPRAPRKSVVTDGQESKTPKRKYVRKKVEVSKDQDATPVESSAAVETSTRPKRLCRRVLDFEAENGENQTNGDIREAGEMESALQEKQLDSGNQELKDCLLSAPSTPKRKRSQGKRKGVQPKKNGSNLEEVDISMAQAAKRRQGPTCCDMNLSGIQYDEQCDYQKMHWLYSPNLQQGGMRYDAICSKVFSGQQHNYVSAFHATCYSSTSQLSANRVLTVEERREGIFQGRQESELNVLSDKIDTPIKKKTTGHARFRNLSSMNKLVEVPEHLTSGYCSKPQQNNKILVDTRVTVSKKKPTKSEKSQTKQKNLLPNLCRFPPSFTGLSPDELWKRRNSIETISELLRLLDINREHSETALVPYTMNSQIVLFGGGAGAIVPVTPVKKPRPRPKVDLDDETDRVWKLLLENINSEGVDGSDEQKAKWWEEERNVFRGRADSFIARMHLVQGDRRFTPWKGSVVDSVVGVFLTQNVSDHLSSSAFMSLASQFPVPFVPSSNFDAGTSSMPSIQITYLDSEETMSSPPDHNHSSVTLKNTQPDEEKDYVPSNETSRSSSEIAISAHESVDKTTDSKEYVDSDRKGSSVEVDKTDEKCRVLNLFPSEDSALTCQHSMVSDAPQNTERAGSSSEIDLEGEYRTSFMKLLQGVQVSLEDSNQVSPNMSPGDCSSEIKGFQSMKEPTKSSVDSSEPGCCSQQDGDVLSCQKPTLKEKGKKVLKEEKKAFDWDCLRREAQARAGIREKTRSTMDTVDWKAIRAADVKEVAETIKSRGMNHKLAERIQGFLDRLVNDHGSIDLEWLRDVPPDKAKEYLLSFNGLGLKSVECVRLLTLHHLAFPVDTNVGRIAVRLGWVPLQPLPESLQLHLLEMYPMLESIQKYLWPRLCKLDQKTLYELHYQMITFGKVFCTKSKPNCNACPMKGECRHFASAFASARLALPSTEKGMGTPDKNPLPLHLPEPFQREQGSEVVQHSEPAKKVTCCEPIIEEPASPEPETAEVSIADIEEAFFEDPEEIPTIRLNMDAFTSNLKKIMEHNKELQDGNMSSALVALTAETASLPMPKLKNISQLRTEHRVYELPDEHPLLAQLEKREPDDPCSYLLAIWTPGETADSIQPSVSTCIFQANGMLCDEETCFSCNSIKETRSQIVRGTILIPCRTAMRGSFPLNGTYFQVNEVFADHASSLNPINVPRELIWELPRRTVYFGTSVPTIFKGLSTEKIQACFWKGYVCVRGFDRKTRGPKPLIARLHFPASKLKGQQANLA

[3] = target: T3, REPRESSOR OF … 1 (ROS1), yeast two-hybrid fusion (Arabidopsis) (UniProt Q9SJQ6); experiment: two-hybrid
T3 sequence: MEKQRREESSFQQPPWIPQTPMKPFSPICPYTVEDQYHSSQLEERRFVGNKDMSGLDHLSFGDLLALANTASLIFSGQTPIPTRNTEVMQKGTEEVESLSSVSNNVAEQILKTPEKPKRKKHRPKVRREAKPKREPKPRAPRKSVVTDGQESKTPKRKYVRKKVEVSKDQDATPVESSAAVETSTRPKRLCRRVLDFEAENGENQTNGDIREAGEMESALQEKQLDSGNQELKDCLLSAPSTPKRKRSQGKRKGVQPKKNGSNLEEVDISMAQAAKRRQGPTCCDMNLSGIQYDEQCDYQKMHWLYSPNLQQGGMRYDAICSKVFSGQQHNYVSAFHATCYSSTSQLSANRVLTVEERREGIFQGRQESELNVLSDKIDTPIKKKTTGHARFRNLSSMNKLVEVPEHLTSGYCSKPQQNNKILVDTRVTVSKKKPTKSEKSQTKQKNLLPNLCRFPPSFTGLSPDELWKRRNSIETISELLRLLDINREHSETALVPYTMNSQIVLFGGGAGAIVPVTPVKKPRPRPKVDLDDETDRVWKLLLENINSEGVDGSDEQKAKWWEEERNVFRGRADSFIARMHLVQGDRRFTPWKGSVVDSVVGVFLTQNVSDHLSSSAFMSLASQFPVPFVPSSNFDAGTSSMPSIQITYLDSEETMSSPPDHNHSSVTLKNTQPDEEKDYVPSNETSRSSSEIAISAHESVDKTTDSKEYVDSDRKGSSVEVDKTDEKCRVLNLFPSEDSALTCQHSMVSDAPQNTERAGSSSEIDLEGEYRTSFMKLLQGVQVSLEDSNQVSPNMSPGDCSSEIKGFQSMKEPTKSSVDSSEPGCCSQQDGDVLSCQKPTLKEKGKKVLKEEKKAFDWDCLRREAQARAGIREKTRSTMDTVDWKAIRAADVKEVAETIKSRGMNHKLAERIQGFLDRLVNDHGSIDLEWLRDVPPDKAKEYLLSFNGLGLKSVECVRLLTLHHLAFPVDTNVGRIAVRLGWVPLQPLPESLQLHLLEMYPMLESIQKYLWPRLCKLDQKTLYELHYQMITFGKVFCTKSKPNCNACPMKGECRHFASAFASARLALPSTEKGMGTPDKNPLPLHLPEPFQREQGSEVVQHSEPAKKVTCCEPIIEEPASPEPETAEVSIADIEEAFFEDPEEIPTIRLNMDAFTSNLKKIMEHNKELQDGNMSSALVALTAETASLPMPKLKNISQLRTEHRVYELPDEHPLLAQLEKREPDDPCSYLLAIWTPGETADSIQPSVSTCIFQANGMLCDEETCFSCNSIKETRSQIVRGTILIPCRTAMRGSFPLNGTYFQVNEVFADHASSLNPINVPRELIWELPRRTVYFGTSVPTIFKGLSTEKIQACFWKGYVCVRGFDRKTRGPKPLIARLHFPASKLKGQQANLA

[4] = target: ROS1-associated WD40 domain-containing protein (RWD40), yeast two-hybrid fusion (Arabidopsis); experiment: two-hybrid

For “RHD1, split YFP fusion (BiFC) (Arabidopsis)”, the binding [1] was “no binding”.

With “RHD1, split luciferase fusion (Arabidopsis)” the binding [2] was “no binding”.

With “RMB1, split YFP fusion (BiFC) (Arabidopsis)” the binding [1] was “no binding”.

For “RMB1, split luciferase fusion (Arabidopsis)”, the binding [2] was “no binding”.

In the case of “ROS1-associated WD40 domain-containing protein (RWD40), yeast two-hybrid fusion (Arabidopsis)”, the binding [3] is reported as “binds”.

With “ROS1-associated methyl-DNA binding protein 1 (RMB1), yeast two-hybrid fusion (Arabidopsis)” the binding [3] was “no binding”.

“RWD40, split YFP fusion (BiFC) (Arabidopsis)” was tested, and the binding [1] was “binds”.

For “RWD40, split luciferase fusion (Arabidopsis)”, the binding [2] was “binds”.

B1: ROS1 N-terminal half (amino acid residues 1 to 696), yeast two-hybrid fusion (domain or fragment, UniProt Q9SJQ6 1-696)
chain: MEKQRREESSFQQPPWIPQTPMKPFSPICPYTVEDQYHSSQLEERRFVGNKDMSGLDHLSFGDLLALANTASLIFSGQTPIPTRNTEVMQKGTEEVESLSSVSNNVAEQILKTPEKPKRKKHRPKVRREAKPKREPKPRAPRKSVVTDGQESKTPKRKYVRKKVEVSKDQDATPVESSAAVETSTRPKRLCRRVLDFEAENGENQTNGDIREAGEMESALQEKQLDSGNQELKDCLLSAPSTPKRKRSQGKRKGVQPKKNGSNLEEVDISMAQAAKRRQGPTCCDMNLSGIQYDEQCDYQKMHWLYSPNLQQGGMRYDAICSKVFSGQQHNYVSAFHATCYSSTSQLSANRVLTVEERREGIFQGRQESELNVLSDKIDTPIKKKTTGHARFRNLSSMNKLVEVPEHLTSGYCSKPQQNNKILVDTRVTVSKKKPTKSEKSQTKQKNLLPNLCRFPPSFTGLSPDELWKRRNSIETISELLRLLDINREHSETALVPYTMNSQIVLFGGGAGAIVPVTPVKKPRPRPKVDLDDETDRVWKLLLENINSEGVDGSDEQKAKWWEEERNVFRGRADSFIARMHLVQGDRRFTPWKGSVVDSVVGVFLTQNVSDHLSSSAFMSLASQFPVPFVPSSNFDAGTSSMPSIQITYLDSEETMSSPPDHNHSSVTLKNTQPDEEKDYVPSNETSRSSSEIAIS
B1 was tested, and the binding [4] was “binds”.

B2: ROS1 ELD (EAR-like Domain) domain (amino acid residues 41 to 100), yeast two-hybrid fusion (domain or fragment, UniProt Q9SJQ6 41-100)
chain: QLEERRFVGNKDMSGLDHLSFGDLLALANTASLIFSGQTPIPTRNTEVMQKGTEEVESLS
B2 was tested, and the binding [4] was “binds”.

B3: ROS1 C-terminal half (amino acid residues 697 to 1393), yeast two-hybrid fusion (domain or fragment, UniProt Q9SJQ6 697-1393)
chain: AHESVDKTTDSKEYVDSDRKGSSVEVDKTDEKCRVLNLFPSEDSALTCQHSMVSDAPQNTERAGSSSEIDLEGEYRTSFMKLLQGVQVSLEDSNQVSPNMSPGDCSSEIKGFQSMKEPTKSSVDSSEPGCCSQQDGDVLSCQKPTLKEKGKKVLKEEKKAFDWDCLRREAQARAGIREKTRSTMDTVDWKAIRAADVKEVAETIKSRGMNHKLAERIQGFLDRLVNDHGSIDLEWLRDVPPDKAKEYLLSFNGLGLKSVECVRLLTLHHLAFPVDTNVGRIAVRLGWVPLQPLPESLQLHLLEMYPMLESIQKYLWPRLCKLDQKTLYELHYQMITFGKVFCTKSKPNCNACPMKGECRHFASAFASARLALPSTEKGMGTPDKNPLPLHLPEPFQREQGSEVVQHSEPAKKVTCCEPIIEEPASPEPETAEVSIADIEEAFFEDPEEIPTIRLNMDAFTSNLKKIMEHNKELQDGNMSSALVALTAETASLPMPKLKNISQLRTEHRVYELPDEHPLLAQLEKREPDDPCSYLLAIWTPGETADSIQPSVSTCIFQANGMLCDEETCFSCNSIKETRSQIVRGTILIPCRTAMRGSFPLNGTYFQVNEVFADHASSLNPINVPRELIWELPRRTVYFGTSVPTIFKGLSTEKIQACFWKGYVCVRGFDRKTRGPKPLIARLHFPASKLKGQQANLA
With B3 the binding [4] was “no binding”.
